In the supplement of paper PMC10849652:
The list shows a part of the results.

Amino acid sequences for entries named in this document (tags omitted). A change or cut given only in a name is not applied to a line headed by its entry.
UniProt Q14435: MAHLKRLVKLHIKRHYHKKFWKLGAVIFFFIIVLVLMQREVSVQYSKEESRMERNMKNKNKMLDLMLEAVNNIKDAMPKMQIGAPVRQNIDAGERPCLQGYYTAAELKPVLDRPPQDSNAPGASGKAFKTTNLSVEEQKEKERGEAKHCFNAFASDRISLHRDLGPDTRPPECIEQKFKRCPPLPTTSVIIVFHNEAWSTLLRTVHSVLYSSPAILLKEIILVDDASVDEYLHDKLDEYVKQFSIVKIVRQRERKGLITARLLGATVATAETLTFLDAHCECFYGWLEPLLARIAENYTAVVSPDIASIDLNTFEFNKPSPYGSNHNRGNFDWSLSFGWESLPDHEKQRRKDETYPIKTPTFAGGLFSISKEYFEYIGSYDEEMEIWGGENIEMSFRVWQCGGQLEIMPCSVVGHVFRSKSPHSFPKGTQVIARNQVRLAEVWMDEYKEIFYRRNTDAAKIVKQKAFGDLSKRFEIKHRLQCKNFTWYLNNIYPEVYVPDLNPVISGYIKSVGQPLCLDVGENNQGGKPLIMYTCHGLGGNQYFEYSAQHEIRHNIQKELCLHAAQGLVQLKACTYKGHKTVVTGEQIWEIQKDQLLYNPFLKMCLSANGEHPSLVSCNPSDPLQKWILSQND
UniProt Q6P4F1: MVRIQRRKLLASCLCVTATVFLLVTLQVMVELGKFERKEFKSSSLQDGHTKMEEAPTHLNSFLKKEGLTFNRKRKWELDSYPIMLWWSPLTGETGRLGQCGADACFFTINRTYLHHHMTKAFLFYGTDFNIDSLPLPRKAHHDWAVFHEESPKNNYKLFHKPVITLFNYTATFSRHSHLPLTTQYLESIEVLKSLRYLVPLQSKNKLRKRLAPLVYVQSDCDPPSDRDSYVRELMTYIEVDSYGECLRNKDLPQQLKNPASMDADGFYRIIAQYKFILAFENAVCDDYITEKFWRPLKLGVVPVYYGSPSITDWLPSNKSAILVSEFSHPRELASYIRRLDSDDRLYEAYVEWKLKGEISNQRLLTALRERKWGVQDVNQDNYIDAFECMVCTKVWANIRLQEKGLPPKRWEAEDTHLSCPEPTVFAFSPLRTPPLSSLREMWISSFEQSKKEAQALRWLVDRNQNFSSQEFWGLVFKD
UniProt P04406: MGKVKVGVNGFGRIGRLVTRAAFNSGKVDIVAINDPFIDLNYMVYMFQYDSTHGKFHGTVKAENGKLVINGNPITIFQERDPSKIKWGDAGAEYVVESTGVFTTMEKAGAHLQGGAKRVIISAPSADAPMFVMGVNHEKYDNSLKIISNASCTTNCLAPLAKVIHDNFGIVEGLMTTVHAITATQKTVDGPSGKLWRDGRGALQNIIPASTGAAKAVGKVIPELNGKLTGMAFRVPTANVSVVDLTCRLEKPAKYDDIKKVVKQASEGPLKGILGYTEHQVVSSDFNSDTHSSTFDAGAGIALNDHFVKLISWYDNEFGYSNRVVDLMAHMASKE
UniProt Q9H840: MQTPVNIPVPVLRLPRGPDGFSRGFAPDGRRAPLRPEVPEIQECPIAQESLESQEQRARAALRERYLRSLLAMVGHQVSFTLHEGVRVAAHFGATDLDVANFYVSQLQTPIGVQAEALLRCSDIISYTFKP
UniProt Q3B7J2: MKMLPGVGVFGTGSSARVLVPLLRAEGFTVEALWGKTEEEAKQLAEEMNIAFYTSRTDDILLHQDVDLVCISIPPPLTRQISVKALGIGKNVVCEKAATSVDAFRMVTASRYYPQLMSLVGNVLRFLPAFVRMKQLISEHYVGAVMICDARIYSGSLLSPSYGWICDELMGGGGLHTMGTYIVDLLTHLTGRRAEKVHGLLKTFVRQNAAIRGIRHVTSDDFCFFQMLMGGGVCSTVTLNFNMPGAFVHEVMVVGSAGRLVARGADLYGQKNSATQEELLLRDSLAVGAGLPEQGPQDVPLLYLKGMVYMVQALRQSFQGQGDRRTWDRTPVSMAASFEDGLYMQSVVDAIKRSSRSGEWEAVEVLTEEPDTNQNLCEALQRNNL
UniProt P01275: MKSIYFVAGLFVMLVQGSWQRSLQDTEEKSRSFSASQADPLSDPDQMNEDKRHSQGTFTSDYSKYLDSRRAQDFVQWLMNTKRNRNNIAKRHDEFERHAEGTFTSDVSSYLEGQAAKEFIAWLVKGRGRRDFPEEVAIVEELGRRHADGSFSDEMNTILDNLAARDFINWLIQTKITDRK
UniProt Q06547, whole entry, looked up: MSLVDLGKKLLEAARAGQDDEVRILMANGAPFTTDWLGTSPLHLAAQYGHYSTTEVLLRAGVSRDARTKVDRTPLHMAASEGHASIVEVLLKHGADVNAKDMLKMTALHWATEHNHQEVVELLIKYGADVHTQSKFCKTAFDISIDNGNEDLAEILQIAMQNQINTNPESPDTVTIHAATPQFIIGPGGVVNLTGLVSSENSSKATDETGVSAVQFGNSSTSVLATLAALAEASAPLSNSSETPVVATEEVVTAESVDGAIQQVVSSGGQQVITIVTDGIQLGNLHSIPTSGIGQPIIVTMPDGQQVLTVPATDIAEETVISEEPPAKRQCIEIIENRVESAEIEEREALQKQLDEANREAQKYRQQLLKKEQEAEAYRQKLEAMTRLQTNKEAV
UniProt Q969S9: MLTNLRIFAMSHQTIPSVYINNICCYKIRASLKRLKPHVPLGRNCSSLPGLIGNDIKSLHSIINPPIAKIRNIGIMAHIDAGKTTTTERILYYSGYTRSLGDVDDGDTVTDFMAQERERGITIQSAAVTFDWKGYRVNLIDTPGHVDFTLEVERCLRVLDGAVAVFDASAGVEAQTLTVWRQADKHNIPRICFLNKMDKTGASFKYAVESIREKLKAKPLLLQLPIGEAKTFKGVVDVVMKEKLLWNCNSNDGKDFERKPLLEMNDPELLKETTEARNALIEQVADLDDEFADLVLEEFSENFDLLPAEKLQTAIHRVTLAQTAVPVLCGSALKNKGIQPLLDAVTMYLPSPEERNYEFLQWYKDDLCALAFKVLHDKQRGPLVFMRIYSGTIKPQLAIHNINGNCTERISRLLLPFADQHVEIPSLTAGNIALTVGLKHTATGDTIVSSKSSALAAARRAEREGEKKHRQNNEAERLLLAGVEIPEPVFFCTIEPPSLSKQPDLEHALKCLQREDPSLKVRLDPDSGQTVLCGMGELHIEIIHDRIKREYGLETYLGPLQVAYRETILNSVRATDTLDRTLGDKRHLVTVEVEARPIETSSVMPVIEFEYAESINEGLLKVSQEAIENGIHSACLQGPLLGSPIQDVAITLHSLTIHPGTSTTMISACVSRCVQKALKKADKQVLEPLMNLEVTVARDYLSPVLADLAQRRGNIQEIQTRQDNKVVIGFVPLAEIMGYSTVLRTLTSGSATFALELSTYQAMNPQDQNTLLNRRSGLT
UniProt Q8WTR4: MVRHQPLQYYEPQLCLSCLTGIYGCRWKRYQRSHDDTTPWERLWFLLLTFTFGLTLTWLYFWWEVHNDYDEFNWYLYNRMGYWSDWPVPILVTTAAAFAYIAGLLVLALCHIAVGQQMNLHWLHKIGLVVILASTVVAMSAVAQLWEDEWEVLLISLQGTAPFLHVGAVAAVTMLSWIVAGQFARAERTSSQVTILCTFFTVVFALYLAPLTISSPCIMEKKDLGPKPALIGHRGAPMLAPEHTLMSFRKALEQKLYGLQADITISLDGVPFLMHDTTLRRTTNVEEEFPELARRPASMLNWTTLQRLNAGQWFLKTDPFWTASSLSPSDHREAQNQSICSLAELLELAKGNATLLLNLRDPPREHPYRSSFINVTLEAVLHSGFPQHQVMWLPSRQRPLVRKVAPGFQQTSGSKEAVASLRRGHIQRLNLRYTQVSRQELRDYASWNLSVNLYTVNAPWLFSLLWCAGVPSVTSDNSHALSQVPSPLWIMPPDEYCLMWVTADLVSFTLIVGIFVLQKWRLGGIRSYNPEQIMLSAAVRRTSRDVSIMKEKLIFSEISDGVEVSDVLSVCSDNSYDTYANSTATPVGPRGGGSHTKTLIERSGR
UniProt P16383: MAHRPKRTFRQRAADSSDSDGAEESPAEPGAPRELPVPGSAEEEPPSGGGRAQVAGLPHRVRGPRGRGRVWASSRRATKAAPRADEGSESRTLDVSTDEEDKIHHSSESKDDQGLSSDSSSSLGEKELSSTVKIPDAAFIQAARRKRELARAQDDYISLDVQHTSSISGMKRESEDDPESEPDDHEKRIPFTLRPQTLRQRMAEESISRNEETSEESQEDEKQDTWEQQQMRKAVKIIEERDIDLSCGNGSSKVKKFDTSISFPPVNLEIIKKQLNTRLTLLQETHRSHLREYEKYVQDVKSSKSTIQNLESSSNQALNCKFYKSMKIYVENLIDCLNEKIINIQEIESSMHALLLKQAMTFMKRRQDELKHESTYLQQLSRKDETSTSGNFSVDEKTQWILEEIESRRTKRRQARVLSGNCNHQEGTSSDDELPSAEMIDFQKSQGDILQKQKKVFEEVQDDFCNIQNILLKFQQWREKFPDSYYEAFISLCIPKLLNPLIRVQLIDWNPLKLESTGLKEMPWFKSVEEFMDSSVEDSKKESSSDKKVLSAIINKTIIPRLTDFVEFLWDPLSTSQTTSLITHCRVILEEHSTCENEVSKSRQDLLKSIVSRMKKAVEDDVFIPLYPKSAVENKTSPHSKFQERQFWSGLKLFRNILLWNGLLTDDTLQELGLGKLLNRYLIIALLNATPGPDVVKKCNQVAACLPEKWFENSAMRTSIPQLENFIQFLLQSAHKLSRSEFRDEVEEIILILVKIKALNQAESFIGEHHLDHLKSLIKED
UniProt Q14697: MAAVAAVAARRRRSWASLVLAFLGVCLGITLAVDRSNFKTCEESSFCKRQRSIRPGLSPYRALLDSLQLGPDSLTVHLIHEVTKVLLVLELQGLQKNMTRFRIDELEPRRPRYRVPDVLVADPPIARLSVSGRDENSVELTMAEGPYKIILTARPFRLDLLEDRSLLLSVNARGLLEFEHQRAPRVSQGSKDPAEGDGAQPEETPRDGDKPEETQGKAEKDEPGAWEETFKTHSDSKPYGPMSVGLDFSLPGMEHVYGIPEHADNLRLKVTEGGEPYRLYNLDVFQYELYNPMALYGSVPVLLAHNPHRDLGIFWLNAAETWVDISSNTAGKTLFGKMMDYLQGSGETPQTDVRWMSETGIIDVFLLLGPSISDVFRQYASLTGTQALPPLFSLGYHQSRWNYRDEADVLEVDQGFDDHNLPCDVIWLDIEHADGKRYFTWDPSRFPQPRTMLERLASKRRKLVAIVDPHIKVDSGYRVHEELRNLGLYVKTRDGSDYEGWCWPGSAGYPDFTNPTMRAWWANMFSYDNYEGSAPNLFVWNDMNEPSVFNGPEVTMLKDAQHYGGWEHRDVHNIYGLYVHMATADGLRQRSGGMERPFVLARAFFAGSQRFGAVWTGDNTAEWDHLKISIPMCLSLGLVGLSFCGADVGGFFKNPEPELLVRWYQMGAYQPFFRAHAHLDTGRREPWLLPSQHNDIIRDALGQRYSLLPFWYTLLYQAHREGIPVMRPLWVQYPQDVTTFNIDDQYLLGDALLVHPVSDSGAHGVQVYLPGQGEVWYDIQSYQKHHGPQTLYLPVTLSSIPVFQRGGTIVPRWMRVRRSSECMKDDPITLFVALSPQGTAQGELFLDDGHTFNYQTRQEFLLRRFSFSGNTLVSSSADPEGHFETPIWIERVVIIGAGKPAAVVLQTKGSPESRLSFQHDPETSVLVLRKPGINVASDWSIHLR
UniProt Q7L5L3: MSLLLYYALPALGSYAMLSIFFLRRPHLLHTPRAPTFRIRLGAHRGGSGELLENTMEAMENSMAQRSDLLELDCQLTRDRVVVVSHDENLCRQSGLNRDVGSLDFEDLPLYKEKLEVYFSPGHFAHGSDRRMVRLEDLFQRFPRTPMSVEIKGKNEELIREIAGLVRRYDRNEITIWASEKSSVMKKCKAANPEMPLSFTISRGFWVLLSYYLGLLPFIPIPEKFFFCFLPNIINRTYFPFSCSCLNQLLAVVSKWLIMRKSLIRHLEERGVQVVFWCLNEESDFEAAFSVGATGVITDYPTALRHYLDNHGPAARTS
UniProt Q9BZ67: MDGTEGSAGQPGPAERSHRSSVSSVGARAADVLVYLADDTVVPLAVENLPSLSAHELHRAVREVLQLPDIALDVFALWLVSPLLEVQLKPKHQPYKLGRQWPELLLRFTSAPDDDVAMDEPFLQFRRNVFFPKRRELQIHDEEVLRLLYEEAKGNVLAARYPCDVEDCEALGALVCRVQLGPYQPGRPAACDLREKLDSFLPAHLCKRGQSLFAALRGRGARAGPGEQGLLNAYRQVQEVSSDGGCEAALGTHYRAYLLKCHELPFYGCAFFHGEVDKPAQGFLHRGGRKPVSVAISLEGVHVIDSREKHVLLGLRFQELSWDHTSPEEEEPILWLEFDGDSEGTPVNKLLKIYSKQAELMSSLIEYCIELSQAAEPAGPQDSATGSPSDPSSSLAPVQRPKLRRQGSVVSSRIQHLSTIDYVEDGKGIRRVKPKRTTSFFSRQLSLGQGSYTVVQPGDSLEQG

Tests used:
Assay in all cases: log2 fold change, soluble protein after heating vs DMSO (PISA); higher = thermal stabilisation; K562 cells, 10 uM, 30 min; active = over 0.2 and 3.5 SD of the protein, either way, in both replicates (recomputed)
gandotinib = compound: Cc1cc(Nc2cc(CN3CCOCC3)c3nc(C)c(Cc4ccc(Cl)cc4F)n3n2)n[nH]1 [gandotinib]
In short: (§1)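 Quantification of soluble protein used TMTpro 16plex LC-MS/MS, with channel sums equalised. Samples were the supernatant after 21,000xg for 90 min of pooled aliquots from K562 cells (2×10^6 cells/mL) treated with 10 μM compound for 30 min, heated for 3 min over 48°C-58°C, and extracted in PBS with 0.5% NP-40 at 4°C. Values, from duplicates, describe thermal stability against control samples on a log2 fold-change scale.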

tozasertib = compound: Cc1cc(Nc2cc(N3CCN(C)CC3)nc(Sc3ccc(NC(=O)C4CC4)cc3)n2)n[nH]1 [tozasertib]
In short: as §1

[1] = compound: Cc1cccc(CC(=O)N2CCc3c2ccc(-c2cn(C)c4ncnc(N)c24)c3F)n1
In short: as §1

[2] = compound: C[C@@H]1COCCN1C2=NC(=NC(=C2)C3(CC3)S(=O)(=O)C)C4=C5C=CNC5=CC=C4
In short: as §1

mubritinib = compound: FC(F)(F)c1ccc(/C=C/c2nc(COc3ccc(CCCCn4ccnn4)cc3)co2)cc1 [mubritinib]
In short: as §1

crizotinib = compound: C[C@@H](Oc1cc(-c2cnn(C3CCNCC3)c2)cnc1N)c1c(Cl)ccc(F)c1Cl [crizotinib]
In short: as §1

doramapimod = compound: Cc1ccc(-n2nc(C(C)(C)C)cc2NC(=O)Nc2ccc(OCCN3CCOCC3)c3ccccc23)cc1 [doramapimod]
In short: as §1

ispinesib = compound: Cc1ccc(C(=O)N(CCCN)[C@@H](c2nc3cc(Cl)ccc3c(=O)n2Cc2ccccc2)C(C)C)cc1 [ispinesib]
In short: as §1

nilotinib = compound: Cc1cn(-c2cc(NC(=O)c3ccc(C)c(Nc4nccc(-c5cccnc5)n4)c3)cc(C(F)(F)F)c2)cn1 [nilotinib]
In short: as §1

[3] = compound: Cc1nc(Nc2n[nH]c3c2CN(C(=O)N[C@H](CN(C)C)c2ccccc2)C3(C)C)c2sccc2n1
In short: as §1

[4] = compound: Cc1ncc(-c2ccnc(Nc3ccc(S(C)(=O)=O)cc3)n2)n1C(C)C
In short: as §1

[5] = compound: Cn1cc(-c2ccc3nnc(C(F)(F)c4ccc5ncccc5c4)n3n2)cn1
In short: as §1

[6] = compound: C[C@H](C1=CC=C(C=C1)C(=O)NC2=C3C=CNC3=NC=C2)N
In short: as §1

duvelisib = compound: C[C@H](Nc1ncnc2nc[nH]c12)c1cc2cccc(Cl)c2c(=O)n1-c1ccccc1 [duvelisib]
In short: as §1

[7] = compound: Cc1cc(SCc2sc(-c3ccc(C(F)(F)F)cc3)nc2C)ccc1OCC(=O)O
In short: as §1

dasatinib = compound: Cc1nc(Nc2ncc(C(=O)Nc3c(C)cccc3Cl)s2)cc(N2CCN(CCO)CC2)n1 [dasatinib]
In short: as §1

[8] = compound: Cn1cc(-c2ccc3c(c2)CCN3C(=O)Cc2cccc(C(F)(F)F)c2)c2c(N)ncnc21
In short: as §1

bafetinib = compound: Cc1ccc(NC(=O)c2ccc(CN3CC[C@H](N(C)C)C3)c(C(F)(F)F)c2)cc1Nc1nccc(-c2cncnc2)n1 [bafetinib]
In short: as §1

tipifarnib = compound: Cn1cncc1[C@@](N)(c1ccc(Cl)cc1)c1ccc2c(c1)c(-c1cccc(Cl)c1)cc(=O)n2C [tipifarnib]
In short: as §1

Measured: log2 fold change

GALNT3 (UniProt Q14435)
inactive: gandotinib 0.251 | tozasertib 0.075 | [1] -0.235

FUT10 isoform 2 (UniProt Q6P4F1)
inactive: [2] 0.24 | gandotinib 0.175 | [1] 0.022

GAPDH isoform 2 (UniProt P04406)
inactive: mubritinib 0.132

GEMIN7 (UniProt Q9H840)
inactive: [2] 0.158 | gandotinib 0.449 | [1] -0.119 | mubritinib 0.07

GCC1 (UniProt Q96CN9)
inactive: crizotinib -0.347 | [2] 0.067 | gandotinib 0.307 | doramapimod 0.171 | ispinesib -0.24 | [1] -0.109 | nilotinib -0.021 | [3] -0.128 | [4] 0.007 | [5] 0.089

GFOD2 (UniProt Q3B7J2)
inactive: [2] 0.003

GCG (UniProt P01275)
inactive: [6] 0.278 | duvelisib -0.224 | [7] -0.168 | dasatinib 2.22 | [8] -0.22

GABPB1 isoform 3 (UniProt Q06547)
inactive: [6] -0.339 | duvelisib 0.062 | gandotinib -0.117 | tozasertib 0.191 | [7] 0.118 | bafetinib -0.207 | [1] 0.056 | dasatinib -0.146 | [8] 0.372 | tipifarnib 0.216 | mubritinib -0.037

GFM2 (UniProt Q969S9)
inactive: bafetinib -0.009 | mubritinib -0.059

GDPD5 (UniProt Q8WTR4)
inactive: crizotinib 0.277 | [2] 0.02 | doramapimod 0.016 | bafetinib -0.09

FRAT1 (UniProt Q92837)
inactive: ispinesib 0.068 | [5] -0.161

GCFC2 isoform 3 (UniProt P16383)
inactive: duvelisib -0.078 | tozasertib 0.216 | [7] -0.107 | dasatinib -0.068 | tipifarnib 0.026

GANAB (UniProt Q14697)
inactive: tozasertib -0.445 | tipifarnib 0.249 | mubritinib 0.071

FYTTD1 (UniProt Q96QD9)
inactive: [2] 0.046 | [6] 0.355 | gandotinib 0.128 | tozasertib -0.269 | [1] 0.056 | [8] -0.156

GDPD3 (UniProt Q7L5L3)
inactive: [2] 0.12 | gandotinib 0.055 | [1] 0.063 | tipifarnib 0.015

FUT4 (UniProt P22083)
inactive: crizotinib 0.026 | tozasertib -0.073 | doramapimod 0.151

FRMD8 (UniProt Q9BZ67)
inactive: [2] -0.11 | [6] -0.14 | tozasertib -0.197 | nilotinib -0.058 | [3] -0.195 | [4] -0.14 | [8] -0.33

FZR1 (UniProt Q9UM11)
inactive: crizotinib -0.105 | doramapimod 0.086

G6PD (UniProt E7EUI8)
inactive: crizotinib -0.046 | doramapimod 0.209

Quoted at random: two records from the list
FRMD8 (UniProt Q9BZ67)
inactive: [2] -0.11 | [6] -0.14 | tozasertib -0.197 | nilotinib -0.058 | [3] -0.195 | [4] -0.14 | [8] -0.33

FZR1 (UniProt Q9UM11)
inactive: crizotinib -0.105 | doramapimod 0.086
